# According to the supplement of paper PMC7666118:
# Sequences of proteins named here, by UniProt entry; tags and fusion partners are left off. A change or cut given only in a name is not applied to a line headed by its entry.
# UniProt Q8IW35: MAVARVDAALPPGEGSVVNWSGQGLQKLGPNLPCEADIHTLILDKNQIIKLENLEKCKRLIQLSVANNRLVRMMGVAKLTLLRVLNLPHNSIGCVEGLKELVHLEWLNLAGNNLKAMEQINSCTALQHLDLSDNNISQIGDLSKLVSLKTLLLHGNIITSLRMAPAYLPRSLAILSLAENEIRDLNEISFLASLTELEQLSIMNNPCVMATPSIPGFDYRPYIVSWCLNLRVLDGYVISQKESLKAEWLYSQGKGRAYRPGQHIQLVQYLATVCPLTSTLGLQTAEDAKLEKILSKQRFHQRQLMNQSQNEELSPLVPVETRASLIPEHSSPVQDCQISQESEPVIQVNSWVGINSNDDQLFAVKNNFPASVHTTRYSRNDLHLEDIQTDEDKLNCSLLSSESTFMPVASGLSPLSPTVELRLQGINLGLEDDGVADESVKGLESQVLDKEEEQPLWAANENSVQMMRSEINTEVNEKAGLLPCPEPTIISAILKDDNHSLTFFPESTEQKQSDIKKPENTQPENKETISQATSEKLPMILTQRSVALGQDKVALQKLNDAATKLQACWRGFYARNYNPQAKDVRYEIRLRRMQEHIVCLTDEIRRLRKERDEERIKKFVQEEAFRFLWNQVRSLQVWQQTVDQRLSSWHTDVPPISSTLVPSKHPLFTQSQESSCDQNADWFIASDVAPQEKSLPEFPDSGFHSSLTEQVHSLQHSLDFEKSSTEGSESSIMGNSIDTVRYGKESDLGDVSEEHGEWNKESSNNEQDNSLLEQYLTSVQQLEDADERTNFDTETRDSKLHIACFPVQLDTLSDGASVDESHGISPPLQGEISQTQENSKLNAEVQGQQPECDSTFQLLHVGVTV
# UniProt Q9NY25: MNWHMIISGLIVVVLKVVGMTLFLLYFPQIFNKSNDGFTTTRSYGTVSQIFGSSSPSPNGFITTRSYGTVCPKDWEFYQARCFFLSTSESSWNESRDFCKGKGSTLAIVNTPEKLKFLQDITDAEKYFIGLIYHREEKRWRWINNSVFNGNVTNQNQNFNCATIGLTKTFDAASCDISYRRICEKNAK
# UniProt Q9NZZ3: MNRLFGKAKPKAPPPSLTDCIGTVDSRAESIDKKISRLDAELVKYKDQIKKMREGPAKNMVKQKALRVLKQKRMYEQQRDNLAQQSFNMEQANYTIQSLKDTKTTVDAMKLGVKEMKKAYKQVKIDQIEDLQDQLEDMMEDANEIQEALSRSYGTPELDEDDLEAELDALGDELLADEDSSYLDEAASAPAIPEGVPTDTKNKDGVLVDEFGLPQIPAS
# UniProt O96017, whole entry: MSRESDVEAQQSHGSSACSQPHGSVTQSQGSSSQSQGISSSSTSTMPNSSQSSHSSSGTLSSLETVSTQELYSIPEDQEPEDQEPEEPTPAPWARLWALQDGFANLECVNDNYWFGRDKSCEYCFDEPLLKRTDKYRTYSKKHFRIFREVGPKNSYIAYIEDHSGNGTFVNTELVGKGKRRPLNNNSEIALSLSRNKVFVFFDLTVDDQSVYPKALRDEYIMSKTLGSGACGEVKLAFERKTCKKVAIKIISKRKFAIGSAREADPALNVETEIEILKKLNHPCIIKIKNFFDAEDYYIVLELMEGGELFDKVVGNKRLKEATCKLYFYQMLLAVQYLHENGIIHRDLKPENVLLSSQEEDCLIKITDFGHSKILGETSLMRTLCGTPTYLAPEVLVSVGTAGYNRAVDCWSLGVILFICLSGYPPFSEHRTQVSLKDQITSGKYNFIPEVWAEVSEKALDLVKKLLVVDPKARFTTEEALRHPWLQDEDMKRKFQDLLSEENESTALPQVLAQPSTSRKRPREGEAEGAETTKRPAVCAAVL
# UniProt Q9H211: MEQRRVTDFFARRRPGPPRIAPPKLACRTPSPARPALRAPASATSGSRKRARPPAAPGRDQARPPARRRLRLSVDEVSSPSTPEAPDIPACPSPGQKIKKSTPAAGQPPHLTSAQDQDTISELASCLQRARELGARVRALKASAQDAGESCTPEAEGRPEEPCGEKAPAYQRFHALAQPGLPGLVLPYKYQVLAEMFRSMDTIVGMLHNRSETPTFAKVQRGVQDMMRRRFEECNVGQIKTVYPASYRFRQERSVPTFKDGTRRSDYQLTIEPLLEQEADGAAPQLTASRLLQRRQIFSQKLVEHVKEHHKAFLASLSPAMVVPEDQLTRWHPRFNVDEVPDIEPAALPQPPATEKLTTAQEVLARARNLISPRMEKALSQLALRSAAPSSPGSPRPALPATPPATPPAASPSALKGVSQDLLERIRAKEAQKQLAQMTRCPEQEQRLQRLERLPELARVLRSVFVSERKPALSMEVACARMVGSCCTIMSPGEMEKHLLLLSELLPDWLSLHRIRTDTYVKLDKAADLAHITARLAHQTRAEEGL
# UniProt P62633: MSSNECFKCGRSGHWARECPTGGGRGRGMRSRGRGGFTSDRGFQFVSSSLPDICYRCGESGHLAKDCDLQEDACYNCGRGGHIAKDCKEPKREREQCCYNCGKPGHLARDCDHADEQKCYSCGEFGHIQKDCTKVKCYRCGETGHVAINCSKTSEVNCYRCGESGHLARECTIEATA
# UniProt Q9HCK8: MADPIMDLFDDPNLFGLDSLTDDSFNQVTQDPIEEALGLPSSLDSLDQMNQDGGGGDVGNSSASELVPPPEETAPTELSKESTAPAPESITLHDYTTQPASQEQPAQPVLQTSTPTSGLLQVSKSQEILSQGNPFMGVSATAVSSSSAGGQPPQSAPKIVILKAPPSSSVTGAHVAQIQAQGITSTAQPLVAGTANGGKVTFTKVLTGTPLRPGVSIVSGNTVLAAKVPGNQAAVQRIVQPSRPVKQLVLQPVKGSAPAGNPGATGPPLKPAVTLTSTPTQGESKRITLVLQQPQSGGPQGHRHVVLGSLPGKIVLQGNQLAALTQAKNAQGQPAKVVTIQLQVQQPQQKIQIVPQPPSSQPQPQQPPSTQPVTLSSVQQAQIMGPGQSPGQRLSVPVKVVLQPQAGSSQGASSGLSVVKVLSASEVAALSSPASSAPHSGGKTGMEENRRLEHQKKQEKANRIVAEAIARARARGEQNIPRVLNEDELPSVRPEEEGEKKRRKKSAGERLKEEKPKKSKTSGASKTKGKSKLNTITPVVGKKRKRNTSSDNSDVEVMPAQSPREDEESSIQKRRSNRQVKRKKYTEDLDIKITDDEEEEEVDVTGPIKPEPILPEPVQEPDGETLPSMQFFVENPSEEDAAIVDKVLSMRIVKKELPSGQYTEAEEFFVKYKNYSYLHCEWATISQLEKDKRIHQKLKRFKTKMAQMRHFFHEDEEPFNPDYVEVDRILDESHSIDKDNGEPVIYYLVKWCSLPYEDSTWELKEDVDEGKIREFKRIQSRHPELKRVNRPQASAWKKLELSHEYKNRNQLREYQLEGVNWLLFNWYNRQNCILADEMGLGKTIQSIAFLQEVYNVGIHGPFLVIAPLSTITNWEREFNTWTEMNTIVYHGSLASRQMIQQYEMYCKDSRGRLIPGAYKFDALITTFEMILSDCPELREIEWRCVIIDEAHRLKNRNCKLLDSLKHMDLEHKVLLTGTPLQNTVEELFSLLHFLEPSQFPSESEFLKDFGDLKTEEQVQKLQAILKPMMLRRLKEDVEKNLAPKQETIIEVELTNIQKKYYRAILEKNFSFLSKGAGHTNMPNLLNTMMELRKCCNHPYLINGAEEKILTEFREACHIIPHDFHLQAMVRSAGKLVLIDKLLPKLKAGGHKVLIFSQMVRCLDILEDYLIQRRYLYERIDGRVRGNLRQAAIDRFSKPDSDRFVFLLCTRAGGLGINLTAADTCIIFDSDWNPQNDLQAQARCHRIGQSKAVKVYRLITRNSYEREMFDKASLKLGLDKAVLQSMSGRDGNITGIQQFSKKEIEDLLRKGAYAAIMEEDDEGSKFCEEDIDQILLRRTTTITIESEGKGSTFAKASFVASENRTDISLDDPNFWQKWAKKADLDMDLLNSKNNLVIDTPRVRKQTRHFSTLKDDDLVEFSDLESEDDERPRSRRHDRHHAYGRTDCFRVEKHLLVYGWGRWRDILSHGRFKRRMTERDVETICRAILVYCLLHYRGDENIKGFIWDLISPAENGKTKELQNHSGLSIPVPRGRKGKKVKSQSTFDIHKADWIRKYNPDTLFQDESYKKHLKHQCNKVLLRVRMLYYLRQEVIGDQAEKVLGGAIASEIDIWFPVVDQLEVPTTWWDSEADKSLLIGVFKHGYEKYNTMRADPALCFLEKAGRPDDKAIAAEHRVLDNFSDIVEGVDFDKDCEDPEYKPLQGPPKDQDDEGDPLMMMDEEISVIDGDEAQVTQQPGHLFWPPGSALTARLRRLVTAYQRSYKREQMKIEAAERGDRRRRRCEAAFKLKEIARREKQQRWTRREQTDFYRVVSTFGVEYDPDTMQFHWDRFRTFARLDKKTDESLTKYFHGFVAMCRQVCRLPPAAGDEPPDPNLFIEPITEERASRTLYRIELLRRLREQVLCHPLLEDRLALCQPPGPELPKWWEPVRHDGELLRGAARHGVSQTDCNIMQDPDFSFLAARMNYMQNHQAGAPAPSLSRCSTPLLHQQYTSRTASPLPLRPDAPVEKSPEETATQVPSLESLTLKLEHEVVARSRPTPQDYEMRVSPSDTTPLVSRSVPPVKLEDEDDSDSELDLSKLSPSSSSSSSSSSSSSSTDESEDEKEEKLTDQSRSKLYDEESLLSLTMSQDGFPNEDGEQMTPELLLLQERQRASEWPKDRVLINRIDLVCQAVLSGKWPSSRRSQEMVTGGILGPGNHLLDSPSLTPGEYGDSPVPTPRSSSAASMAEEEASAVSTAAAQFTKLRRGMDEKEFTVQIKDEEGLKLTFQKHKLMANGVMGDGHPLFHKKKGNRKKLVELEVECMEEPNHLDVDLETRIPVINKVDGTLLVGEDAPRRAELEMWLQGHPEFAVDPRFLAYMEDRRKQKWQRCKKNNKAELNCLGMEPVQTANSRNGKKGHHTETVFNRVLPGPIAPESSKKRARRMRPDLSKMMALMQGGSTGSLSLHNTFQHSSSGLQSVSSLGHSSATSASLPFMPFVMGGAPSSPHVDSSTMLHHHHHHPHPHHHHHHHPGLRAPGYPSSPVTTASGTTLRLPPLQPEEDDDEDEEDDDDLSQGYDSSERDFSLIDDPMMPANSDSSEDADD
# UniProt Q9Y259: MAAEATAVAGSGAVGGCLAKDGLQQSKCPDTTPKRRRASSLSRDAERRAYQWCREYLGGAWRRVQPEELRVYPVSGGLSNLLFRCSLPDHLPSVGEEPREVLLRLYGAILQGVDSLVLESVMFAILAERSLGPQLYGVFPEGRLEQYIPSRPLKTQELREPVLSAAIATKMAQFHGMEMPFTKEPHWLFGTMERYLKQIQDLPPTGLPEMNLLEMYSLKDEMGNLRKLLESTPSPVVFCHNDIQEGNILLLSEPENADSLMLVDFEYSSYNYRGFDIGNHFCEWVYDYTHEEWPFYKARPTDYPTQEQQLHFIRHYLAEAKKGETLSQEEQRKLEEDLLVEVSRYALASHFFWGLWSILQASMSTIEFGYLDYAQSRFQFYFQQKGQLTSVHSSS
# UniProt P50416: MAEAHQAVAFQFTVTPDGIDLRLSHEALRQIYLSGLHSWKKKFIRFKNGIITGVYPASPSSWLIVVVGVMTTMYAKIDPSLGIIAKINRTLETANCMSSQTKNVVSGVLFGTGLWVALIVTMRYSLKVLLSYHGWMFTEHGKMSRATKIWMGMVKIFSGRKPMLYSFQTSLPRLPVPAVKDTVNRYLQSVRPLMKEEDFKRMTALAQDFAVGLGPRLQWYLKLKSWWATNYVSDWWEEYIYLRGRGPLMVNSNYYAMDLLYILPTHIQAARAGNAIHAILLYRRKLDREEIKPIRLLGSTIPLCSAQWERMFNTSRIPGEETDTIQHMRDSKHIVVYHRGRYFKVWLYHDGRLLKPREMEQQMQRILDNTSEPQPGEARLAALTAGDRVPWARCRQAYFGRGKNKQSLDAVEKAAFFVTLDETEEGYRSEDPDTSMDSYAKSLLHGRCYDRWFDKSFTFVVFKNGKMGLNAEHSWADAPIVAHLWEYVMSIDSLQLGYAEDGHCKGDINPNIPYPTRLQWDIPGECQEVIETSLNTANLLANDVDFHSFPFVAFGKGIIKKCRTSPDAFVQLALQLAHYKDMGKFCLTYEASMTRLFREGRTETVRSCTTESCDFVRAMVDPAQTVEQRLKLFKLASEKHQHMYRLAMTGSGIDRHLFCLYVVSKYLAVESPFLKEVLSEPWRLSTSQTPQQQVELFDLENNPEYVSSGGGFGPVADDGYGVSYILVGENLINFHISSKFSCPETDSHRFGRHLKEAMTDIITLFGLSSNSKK
# UniProt P24311, whole entry: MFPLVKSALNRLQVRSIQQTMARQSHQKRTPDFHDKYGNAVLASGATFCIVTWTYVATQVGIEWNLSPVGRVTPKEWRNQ
# UniProt Q8WUX2: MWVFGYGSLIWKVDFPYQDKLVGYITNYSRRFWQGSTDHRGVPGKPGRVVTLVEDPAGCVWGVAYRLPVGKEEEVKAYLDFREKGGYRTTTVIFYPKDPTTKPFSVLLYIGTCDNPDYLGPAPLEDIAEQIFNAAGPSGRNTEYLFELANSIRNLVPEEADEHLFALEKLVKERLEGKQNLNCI
# The other results are listed elsewhere or left out.
# Compound: COc1ccc(Cn2ccc3cc(C)c(C(=O)NO)cc32)cc1
# Assay: dose-dependent thermal stabilisation call (2D-TPP, DLPTP, 10% FDR) (binary (1 = stabilised)); higher = stabilised by the compound
# Settings: system: HL-60 intact cells; concentration range 0.04-10 µM
# Description: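 2D thermal proteome profiling in intact HL-60 cells treated with BRD-3811 (0, 0.04, 0.29, 2, 10 uM) for 90 min at 37 C, then heated 3 min at one of 12 temperatures (42-63.9 C). Soluble protein was quantified by TMT10 MS. The value is the DLPTP call of the paper: dose-dependent thermal stabilisation over all temperatures at 10% FDR (F-test of a dose-response against a flat model); one experiment, one call per tested protein.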
row,Target,dose-dependent thermal stabilisation call
1,CEP97 (UniProt Q8IW35),inactive: 0
2,CLEC5A (UniProt Q9NY25),inactive: 0
3,CD83 (UniProt Q01151),inactive: 0
4,CHMP5 (UniProt Q9NZZ3),inactive: 0
5,COPB1 (UniProt P53618),inactive: 0
6,CD55 (UniProt P08174),inactive: 0
7,CHEK2 (UniProt O96017),inactive: 0
8,COMT (UniProt P21964),inactive: 0
9,CORO1B (UniProt Q9BR76),inactive: 0
10,CDCA5 (UniProt Q96FF9),inactive: 0
11,COPS5 (UniProt Q92905),inactive: 0
12,COG6 (UniProt Q9Y2V7),inactive: 0
13,CEBPZ (UniProt Q03701),inactive: 0
14,CDT1 (UniProt Q9H211),inactive: 0
15,COG2 (UniProt Q14746),inactive: 0
16,COX5A (UniProt P20674),inactive: 0
17,CDKN2C (UniProt P42773),inactive: 0
18,CHUK (UniProt O15111),inactive: 0

row,Target,dose-dependent thermal stabilisation call
1,CLCN3 (UniProt P51790),inactive: 0
2,CENPL (UniProt Q8N0S6),inactive: 0
3,CNBP (UniProt P62633),inactive: 0
4,COG1 (UniProt Q8WTW3),inactive: 0
5,CD53 (UniProt P19397),inactive: 0
6,CLIC4 (UniProt Q9Y696),inactive: 0
7,CIC (UniProt Q96RK0),inactive: 0
8,CHD8 (UniProt Q9HCK8),inactive: 0
9,CNOT3 (UniProt O75175),inactive: 0
10,CHKB (UniProt Q9Y259),inactive: 0
11,CDS2 (UniProt O95674),inactive: 0
12,CECR5 (UniProt Q9BXW7),inactive: 0
13,CPT1A (UniProt P50416),inactive: 0
14,COX7B (UniProt P24311),inactive: 0
15,CHAC2 (UniProt Q8WUX2),inactive: 0
16,CFL1 (UniProt P23528),inactive: 0
17,CHD4 (UniProt Q14839),inactive: 0
18,COQ7 (UniProt Q99807),inactive: 0

# A second format for some results above:
row | Target | dose-dependent thermal stabilisation call
1 | CLCN3 (UniProt P51790) | inactive: 0
7 | CIC (UniProt Q96RK0) | inactive: 0
8 | CHD8 (UniProt Q9HCK8) | inactive: 0
9 | CNOT3 (UniProt O75175) | inactive: 0
12 | CECR5 (UniProt Q9BXW7) | inactive: 0
14 | COX7B (UniProt P24311) | inactive: 0
16 | CFL1 (UniProt P23528) | inactive: 0
